Experimental data from patent US20210130401A1 (THE REGENTS OF THE UNIVERSITY OF MICHIGAN, priority 2017, published 2021).

Assay: general procedure: hybrid (solid and solution phase) peptide synthesis; 2-chlorotrityl chloride resin (ChemPep, 1 mmol/g); EDCl, HOAt, DIPEA (solution couplings)
Settings: for cyclisation yield: cyclisation step
[1] = late stage modification step, TFA salt
[2] = late stage modification step, Waters ACQUITY UPLC, reverse-phase SunFire C18 5 um 4.6x150 mm, 0.1% TFA water/CH3CN, TFA salt
[3] = whole synthesis, over 4 steps, scale of the general procedure 0.1 mmol, CF3COOH salt
[4] = whole synthesis, Waters ACQUITY UPLC, reverse-phase SunFire C18 5 um 4.6x150 mm, 0.1% TFA water/CH3CN, scale of the general procedure 0.1 mmol, TFA salt
[5] = whole synthesis, over 4 steps, scale of the general procedure 0.1 mmol, TFA salt
[6] = whole synthesis, over 4 steps from resin 24, scale of the general procedure 0.1 mmol, TFA salt

N-((3R,6S,9S,12R)-3-(cyclohexylmethyl)-6-ethyl-12-methyl-9-(3-(4-methylpiperazin-1-yl)propyl)-2,5,8,11-tetraoxo-1,4,7,10-tetraazacyclotetradecan-12-yl)isobutyramide
step yield [1]: 73% | final purity (method not given) [2]: >98%

N-((3R,6S,9S,12R)-3-(cyclohexylmethyl)-6-ethyl-12-methyl-9-(3-((5-methyl-1,4,5,6-tetrahydropyrimidin-2-yl)amino)propyl)-2,5,8,11-tetraoxo-1,4,7,10-tetraazacyclotetradecan-12-yl)isobutyramide
step yield [1]: 87% | final purity (method not given) [2]: >98%

N-((3R,6S,9S,12R)-3-(cyclohexylmethyl)-9-(3-(3,3-dimethylguanidino)propyl)-6-ethyl-12-methyl-2,5,8,11-tetraoxo-1,4,7,10-tetraazacyclotetradecan-12-yl)isobutyramide
purity (crude or final not stated) (Waters ACQUITY UPLC, reverse-phase SunFire C18 5 um 4.6x150 mm, 0.1% TFA water/CH3CN, CF3COOH salt): >98%

N-((3R,6S,9S,12R)-3-(cyclohexylmethyl)-9-(3-((4,5-dihydro-1H-imidazol-2-yl)amino)propyl)-6-ethyl-12-methyl-2,5,8,11-tetraoxo-1,4,7,10-tetraazacyclotetradecan-12-yl)isobutyramide
step yield [1]: 76% | final purity (method not given) [2]: >98%

N-((3R,6S,9S,12R)-3-(cyclohexylmethyl)-9-(3-((5,5-difluoro-1,4,5,6-tetrahydropyrimidin-2-yl)amino)propyl)-6-ethyl-12-methyl-2,5,8,11-tetraoxo-1,4,7,10-tetraazacyclotetradecan-12-yl)isobutyramide
step yield [1]: 44% | final purity (method not given) [2]: >98%

N-((3R,6S,9S,12R)-3-(cyclohexylmethyl)-9-(3-((5,5-dimethyl-1,4,5,6-tetrahydropyrimidin-2-yl)amino)propyl)-6-ethyl-12-methyl-2,5,8,11-tetraoxo-1,4,7,10-tetraazacyclotetradecan-12-yl)isobutyramide
step yield [1]: 93% | final purity (method not given) [2]: >98%

N-((3R,6S,9S,12R)-3-(cyclohexylmethyl)-9-(3-((E)-2,3-dimethylguanidino)propyl)-6-ethyl-12-methyl-2,5,8,11-tetraoxo-1,4,7,10-tetraazacyclotetradecan-12-yl)isobutyramide
step yield [1]: 30% | final purity (method not given) [2]: >98%

N-((3R,6S,9S,12R)-3-benzyl-6-ethyl-9-(3-guanidinopropyl)-12-methyl-2,5,8,11-tetraoxo-1,4,7,10-tetraazacyclotetradecan-12-yl)isobutyramide
isolated yield [3]: 56%

N-((3R,6S,9S,12R)-3-cyclohexyl-6-ethyl-9-(3-guanidinopropyl)-12-methyl-2,5,8,11-tetraoxo-1,4,7,10-tetraazacyclotetradecan-12-yl)isobutyramide
isolated yield [3]: 51%

N-((3R,6S,9S,12R)-3-cyclopentyl-6-ethyl-9-(3-guanidinopropyl)-12-methyl-2,5,8,11-tetraoxo-1,4,7,10-tetraazacyclotetradecan-12-yl)isobutyramide
isolated yield [3]: 31%

N-((3R,6S,9S,12R)-6-((R)-sec-butyl)-9-(3-guanidinopropyl)-12-methyl-2,5,8,11-tetraoxo-3-phenyl-1,4,7,10-tetraazacyclotetradecan-12-yl)isobutyramide
isolated mass (whole synthesis, TFA salt): 7.8 mg | final purity (method not given) [4]: >98% | isolated yield [5]: 14%

N-((3R,6S,9S,12R)-6-ethyl-3-(2-fluorobenzyl)-9-(3-guanidinopropyl)-12-methyl-2,5,8,11-tetraoxo-1,4,7,10-tetraazacyclotetradecan-12-yl)isobutyramide
isolated yield [3]: 30%

N-((3R,6S,9S,12R)-6-ethyl-3-(2-fluorophenyl)-9-(3-guanidinopropyl)-12-methyl-2,5,8,11-tetraoxo-1,4,7,10-tetraazacyclotetradecan-12-yl)isobutyramide
isolated mass (whole synthesis, TFA salt): 10.5 mg | final purity (method not given) [4]: >98% | isolated yield [5]: 18%

N-((3R,6S,9S,12R)-6-ethyl-3-(3-fluorobenzyl)-9-(3-guanidinopropyl)-12-methyl-2,5,8,11-tetraoxo-1,4,7,10-tetraazacyclotetradecan-12-yl)isobutyramide
isolated yield [3]: 31%

N-((3R,6S,9S,12R)-6-ethyl-3-(3-fluorophenyl)-9-(3-guanidinopropyl)-12-methyl-2,5,8,11-tetraoxo-1,4,7,10-tetraazacyclotetradecan-12-yl)isobutyramide
isolated mass (whole synthesis, TFA salt): 8.0 mg | final purity (method not given) [4]: >98% | isolated yield [5]: 14%

N-((3R,6S,9S,12R)-6-ethyl-3-(4-fluorobenzyl)-9-(3-guanidinopropyl)-12-methyl-2,5,8,11-tetraoxo-1,4,7,10-tetraazacyclotetradecan-12-yl)isobutyramide
isolated yield [3]: 27%

N-((3R,6S,9S,12R)-6-ethyl-3-(4-fluorophenyl)-9-(3-guanidinopropyl)-1,12-dimethyl-2,5,8,11-tetraoxo-1,4,7,10-tetraazacyclohexadecan-12-yl)isobutyramide
cyclisation yield (over 3 steps from 36f, TFA salt): 11% yield over 3 steps

N-((3R,6S,9S,12R)-6-ethyl-3-(4-fluorophenyl)-9-(3-guanidinopropyl)-12-methyl-2,5,8,11-tetraoxo-1,4,7,10-tetraazacyclotetradecan-12-yl)isobutyramide
isolated yield [3]: 10%

N-((3R,6S,9S,12R)-6-ethyl-9-(3-guanidinopropyl)-1,12-dimethyl-2,5,8,11-tetraoxo-3-phenyl-1,4,7,10-tetraazacyclohexadecan-12-yl)isobutyramide
cyclisation yield (over 3 steps from 36e, TFA salt): 18% yield over 3 steps

N-((3R,6S,9S,12R)-6-ethyl-9-(3-guanidinopropyl)-2,5,8,11-tetraoxo-3-phenyl-1,4,7,10-tetraazacyclohexadecan-12-yl)isobutyramide
isolated yield [5]: 12.7% yield over 4 steps

N-((3R,6S,9S,12R)-6-ethyl-9-(3-guanidinopropyl)-2,5,8,11-tetraoxo-3-phenyl-1,4,7,10-tetraazacyclopentadecan-12-yl)isobutyramide
isolated yield [6]: 21.5% yield over 4 steps

N-((3R,6S,9S,12R)-6-ethyl-9-(3-guanidinopropyl)-2,5,8,11-tetraoxo-3-phenyl-1,4,7,10-tetraazacyclotetradecan-12-yl)isobutyramide
isolated yield [6]: 21.7% yield over 4 steps

N-((3R,6S,9S,12R)-6-ethyl-9-(3-guanidinopropyl)-2,5,8,11-tetraoxo-3-phenyl-1,4,7,10-tetraazacyclotridecan-12-yl)isobutyramide
isolated yield [6]: 24.5% yield over 4 steps

N-((3R,6S,9S,12R)-6-ethyl-9-(3-guanidinopropyl)-3,12-dimethyl-2,5,8,11-tetraoxo-1,4,7,10-tetraazacyclotetradecan-12-yl)isobutyramide
isolated yield [3]: 38%

N-((3R,6S,9S,12R)-6-ethyl-9-(3-guanidinopropyl)-3,12-dimethyl-2,5,8,11-tetraoxo-3-phenyl-1,4,7,10-tetraazacyclotetradecan-12-yl)isobutyramide
isolated mass (whole synthesis, TFA salt): 2.5 mg | final purity (method not given) [4]: >98% | isolated yield [5]: 5%

N-((3R,6S,9S,12R)-6-ethyl-9-(3-guanidinopropyl)-3-(2-methoxyphenyl)-12-methyl-2,5,8,11-tetraoxo-1,4,7,10-tetraazacyclotetradecan-12-yl)isobutyramide
isolated yield [3]: 25%

N-((3R,6S,9S,12R)-6-ethyl-9-(3-guanidinopropyl)-3-(3-methoxyphenyl)-12-methyl-2,5,8,11-tetraoxo-1,4,7,10-tetraazacyclotetradecan-12-yl)isobutyramide
step yield [1]: 42% | final purity (method not given) [2]: >98%

N-((3R,6S,9S,12R)-6-ethyl-9-(3-guanidinopropyl)-3-(4-methoxyphenyl)-12-methyl-2,5,8,11-tetraoxo-1,4,7,10-tetraazacyclotetradecan-12-yl)isobutyramide
isolated mass (whole synthesis, TFA salt): 6.0 mg | final purity (method not given) [4]: >98% | isolated yield [5]: 10%

N-((3R,6S,9S,12R)-6-ethyl-9-(3-guanidinopropyl)-3-isobutyl-12-methyl-2,5,8,11-tetraoxo-1,4,7,10-tetraazacyclotetradecan-12-yl)isobutyramide
isolated yield [3]: 35%

N-((3R,6S,9S,12R)-6-ethyl-9-(3-guanidinopropyl)-12-methyl-2,5,8,11-tetraoxo-3-phenyl-1,4,7,10-tetraazacycloheptadecan-12-yl)isobutyramide
cyclisation yield (over 3 steps from 36b, TFA salt): 28% yield over 3 steps

N-((3R,6S,9S,12R)-6-ethyl-9-(3-guanidinopropyl)-12-methyl-2,5,8,11-tetraoxo-3-phenyl-1,4,7,10-tetraazacyclohexadecan-12-yl)isobutyramide
cyclisation yield (over 3 steps from 36a, CF3COOH salt): 53% yield over 3 steps

N-((3R,6S,9S,12R)-6-ethyl-9-(3-guanidinopropyl)-12-methyl-2,5,8,11-tetraoxo-3-phenyl-1,4,7,10-tetraazacycloicosan-12-yl)isobutyramide
cyclisation yield (over 3 steps from 36d, TFA salt): 27% yield over 3 steps

N-((3R,6S,9S,12R)-6-ethyl-9-(3-guanidinopropyl)-12-methyl-2,5,8,11-tetraoxo-3-phenyl-1,4,7,10-tetraazacyclooctadecan-12-yl)isobutyramide
cyclisation yield (over 3 steps from 36c, TFA salt): 46% yield over 3 steps

N-((3R,6S,9S,12R)-6-ethyl-9-(3-guanidinopropyl)-12-methyl-2,5,8,11-tetraoxo-3-phenyl-1,4,7,10-tetraazacyclopentadecan-12-yl)isobutyramide
isolated yield [6]: 19.4% yield over 4 steps
